# Measured values as given in article doi:10.1101/2025.02.15.638389.
# Amino acid sequences for entries named in this document (tags omitted).
# UniProt Q96RU7: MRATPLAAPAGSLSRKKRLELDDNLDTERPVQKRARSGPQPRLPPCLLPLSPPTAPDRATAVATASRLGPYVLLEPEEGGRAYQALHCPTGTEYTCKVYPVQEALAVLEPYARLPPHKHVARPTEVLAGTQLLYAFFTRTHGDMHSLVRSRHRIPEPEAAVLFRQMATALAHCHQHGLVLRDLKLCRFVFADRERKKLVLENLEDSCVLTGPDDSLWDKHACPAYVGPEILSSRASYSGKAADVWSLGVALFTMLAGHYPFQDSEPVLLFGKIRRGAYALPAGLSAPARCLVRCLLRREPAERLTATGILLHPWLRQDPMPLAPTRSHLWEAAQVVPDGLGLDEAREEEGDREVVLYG
# Results are given in words; binding and its absence hold for the method and conditions named. Some results given as binding are weak or reduced against the parent protein; the word gives no strength.
# Biological target: TRIB3 protein (BLI) (UniProt Q96RU7)
# Experiment: BLI
binder,measurement,value
WSFGILLTELTTKG [Peptide S1-2],binding,binds
